Measured values from publication PMC8508952.
These are yes or no findings as the source states them, for the method shown. Binding seen in cells or lysates may run through a third protein. Some results given as binding are weak or reduced against the parent protein; the word gives no strength. Sequences can lack the tags named with a protein. Values belong to the binder of their own block, whether it stands above or below them.

Chains of the proteins cited; added tags and fusions are not shown. Residues count along the entry.
UniProt P01833, residues 19-764: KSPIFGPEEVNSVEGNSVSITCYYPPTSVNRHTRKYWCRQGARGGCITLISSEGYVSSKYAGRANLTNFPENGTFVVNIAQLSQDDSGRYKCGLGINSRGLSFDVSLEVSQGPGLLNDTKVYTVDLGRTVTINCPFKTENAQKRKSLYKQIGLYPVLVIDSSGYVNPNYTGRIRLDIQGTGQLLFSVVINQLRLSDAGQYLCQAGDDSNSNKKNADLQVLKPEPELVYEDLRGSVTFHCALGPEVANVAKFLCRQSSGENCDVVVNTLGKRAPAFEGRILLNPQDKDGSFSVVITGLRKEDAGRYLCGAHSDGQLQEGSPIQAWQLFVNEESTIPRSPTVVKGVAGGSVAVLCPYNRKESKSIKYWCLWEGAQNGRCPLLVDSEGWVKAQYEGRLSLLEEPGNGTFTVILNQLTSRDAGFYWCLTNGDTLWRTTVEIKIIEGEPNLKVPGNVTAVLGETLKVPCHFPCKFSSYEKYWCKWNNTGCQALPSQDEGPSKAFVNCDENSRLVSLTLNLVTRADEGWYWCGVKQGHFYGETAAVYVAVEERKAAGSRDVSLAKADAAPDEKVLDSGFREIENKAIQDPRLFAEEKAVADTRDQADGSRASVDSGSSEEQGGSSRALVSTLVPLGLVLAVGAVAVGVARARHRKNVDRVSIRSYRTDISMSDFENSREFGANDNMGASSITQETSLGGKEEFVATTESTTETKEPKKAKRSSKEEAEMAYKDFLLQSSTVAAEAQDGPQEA
UniProt P19474: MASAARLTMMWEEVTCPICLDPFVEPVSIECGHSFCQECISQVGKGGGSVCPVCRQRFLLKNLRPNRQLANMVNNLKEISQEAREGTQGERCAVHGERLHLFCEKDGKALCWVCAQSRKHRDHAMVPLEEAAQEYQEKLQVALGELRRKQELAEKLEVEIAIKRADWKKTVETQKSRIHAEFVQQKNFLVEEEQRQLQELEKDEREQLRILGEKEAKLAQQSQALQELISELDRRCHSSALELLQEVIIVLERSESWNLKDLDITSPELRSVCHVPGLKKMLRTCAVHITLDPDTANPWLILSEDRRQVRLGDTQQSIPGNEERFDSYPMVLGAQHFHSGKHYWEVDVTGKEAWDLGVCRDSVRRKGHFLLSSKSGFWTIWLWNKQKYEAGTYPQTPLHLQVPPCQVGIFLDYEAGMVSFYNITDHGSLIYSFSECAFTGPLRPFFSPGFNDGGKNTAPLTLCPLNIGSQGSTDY

Assays:
[1] = target: polymeric immunoglobulin receptor (pIgR), Flag-tagged (human) (UniProt P01833); assay: co-IP; HEK293T co-transfected with the indicated plasmids for 24 h; NP-40 lysis buffer; indicated antibody or control IgG with Protein G Sepharose at 4 °C overnight; washes with lysis buffer containing 500 mM NaCl; immunoblotting
[2] = target: Tripartite motif-containing 21 (TRIM21), Flag-tagged (human) (UniProt P19474); assay: as above
[3] = target: T1, Rab11-FIP5 (Rab11 family interacting protein 5), HA-tagged (human) (UniProt Q9BXF6); assay: as above
T1 sequence: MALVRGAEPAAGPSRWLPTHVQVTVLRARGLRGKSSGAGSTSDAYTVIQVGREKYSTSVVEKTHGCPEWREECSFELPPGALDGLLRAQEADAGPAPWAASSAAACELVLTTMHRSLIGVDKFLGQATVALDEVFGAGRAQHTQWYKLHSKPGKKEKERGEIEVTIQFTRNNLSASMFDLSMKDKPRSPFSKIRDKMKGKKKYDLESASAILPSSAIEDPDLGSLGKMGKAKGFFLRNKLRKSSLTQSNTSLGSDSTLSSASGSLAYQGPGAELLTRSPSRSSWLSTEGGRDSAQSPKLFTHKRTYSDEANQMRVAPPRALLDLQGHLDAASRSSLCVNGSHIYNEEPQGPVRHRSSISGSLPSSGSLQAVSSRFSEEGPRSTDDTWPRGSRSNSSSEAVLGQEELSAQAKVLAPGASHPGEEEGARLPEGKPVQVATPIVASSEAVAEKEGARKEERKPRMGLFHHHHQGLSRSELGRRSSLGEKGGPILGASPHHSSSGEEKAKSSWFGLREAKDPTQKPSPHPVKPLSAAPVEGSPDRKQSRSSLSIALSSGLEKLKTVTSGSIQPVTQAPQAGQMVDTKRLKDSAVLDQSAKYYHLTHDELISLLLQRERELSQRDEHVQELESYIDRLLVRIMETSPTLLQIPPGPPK

[4] = target: polymeric immunoglobulin receptor (pIgR), Flag-tagged (human) (UniProt P01833); assay: co-IP; HEK293T; co-transfection of HA-Rab11-FIP5 with V5-Rab11-FIP1 and pIgR-Flag to test competition for pIgR (Supplementary Figure S4A)

- binding [1]: binds
- binding [2]: binds
B1: Rab11-FIP5 (Rab11 family interacting protein 5), HA-tagged (protein, UniProt Q9BXF6 1-653)
chain: T1 sequence

- binding [3]: binds
- binding [1]: binds
- binding [2]: binds
B2: Rab11-FIP1 (Rab11 family interacting protein 1), HA-tagged (protein, UniProt Q6WKZ4 1-1283)
chain: MSLMVSAGRGLGAVWSPTHVQVTVLQARGLRAKGPGGTSDAYAVIQVGKEKYATSVSERSLGAPVWREEATFELPSLLSSGPAAAATLQLTVLHRALLGLDKFLGRAEVDLRDLHRDQGRRKTQWYKLKSKPGKKDKERGEIEVDIQFMRNNMTASMFDLSMKDKSRNPFGKLKDKIKGKNKDSGSDTASAIIPSTTPSVDSDDESVVKDKKKKSKIKTLLSKSNLQKTPLSQSMSVLPTSKPEKVLLRPGDFQSQWDEDDNEDESSSASDVMSHKRTASTDLKQLNQVNFTLPKKEGLSFLGGLRSKNDVLSRSNVCINGNHVYLEQPEAKGEIKDSSPSSSPSPKGFRKKHLFSSTENLAAGSWKEPAEGGGLSSDRQLSESSTKDSLKSMTLPSYRPAPLVSGDLRENMAPANSEATKEAKESKKPESRRSSLLSLMTGKKDVAKGSEGENPLTVPGREKEGMLMGVKPGEDASGPAEDLVRRSEKDTAAVVSRQGSSLNLFEDVQITEPEAEPESKSEPRPPISSPRAPQTRAVKPRLEVSPEAQPTARLPSPTDSPSSLPPLPSSSGQASVPSELGHGADTQSSESPSVFSSLSSPIAAPISTSTPIESWPLVDRGQAKSEGPPLLPKAELQTESLTPVPNSGSSALGSLFKQPSFPANKGTEDSLMGRTRETGTEKNTSSLELEESLPEQPETGRQEEELPRFPCKKQDYSPSSGEAQEVPFALSLSSDGAVSPVGELAAGGDRDLESQAGSLVESKARDAAEEVAPPLPMGASVPSIDSMMRKLEEMGLNLRKDQKKTKKRVSFSEQLFTEEAVAGAALLVEGHSSCPQELNPAWSVAGNASDGEPPESPHAEDSERESVTTPGPATCGAPASPADHLLLPSQEESFSEVPMSEASSAKDTPLFRMEGEDALVTQYQSKASDHEGLLSDPLSDLQLVSDFKSPIMADLNLSLPSIPEVASDDERIDQVEDDGDQVEDDGETAKSSTLDIGALSLGLVVPCPERGKGPSGEADRLVLGEGLCDFRLQAPQASVTAPSEQTTEFGIHKPHLGKSSSLDKQLPGPSGGEEEKPMGNGSPSPPPGTSLDNPVPSPSPSEIFPVTHSFPSSAHSDTHHTSTAESQKKATAEGSAGRVENFGKRKPLLQAWVSPSETHPVSAQPGAGTGSAKHRLHPVKPMNAMATKVANCSLGTATIISENLNNEVMMKKYSPSDPAFAYAQLTHDELIQLVLKQKETISKKEFQVRELEDYIDNLLVRVMEETPNILRIPTQVGKKAGKM

- binding [4]: binds
B3: V5-Rab11-FIP1 (protein, UniProt Q6WKZ4 1-1283)
chain: B2 chain
